Experimental findings from publication doi:10.1101/2021.10.21.465333 are described below.

The chains behind the UniProt entries cited, without tags or fusion partners.
UniProt P54253: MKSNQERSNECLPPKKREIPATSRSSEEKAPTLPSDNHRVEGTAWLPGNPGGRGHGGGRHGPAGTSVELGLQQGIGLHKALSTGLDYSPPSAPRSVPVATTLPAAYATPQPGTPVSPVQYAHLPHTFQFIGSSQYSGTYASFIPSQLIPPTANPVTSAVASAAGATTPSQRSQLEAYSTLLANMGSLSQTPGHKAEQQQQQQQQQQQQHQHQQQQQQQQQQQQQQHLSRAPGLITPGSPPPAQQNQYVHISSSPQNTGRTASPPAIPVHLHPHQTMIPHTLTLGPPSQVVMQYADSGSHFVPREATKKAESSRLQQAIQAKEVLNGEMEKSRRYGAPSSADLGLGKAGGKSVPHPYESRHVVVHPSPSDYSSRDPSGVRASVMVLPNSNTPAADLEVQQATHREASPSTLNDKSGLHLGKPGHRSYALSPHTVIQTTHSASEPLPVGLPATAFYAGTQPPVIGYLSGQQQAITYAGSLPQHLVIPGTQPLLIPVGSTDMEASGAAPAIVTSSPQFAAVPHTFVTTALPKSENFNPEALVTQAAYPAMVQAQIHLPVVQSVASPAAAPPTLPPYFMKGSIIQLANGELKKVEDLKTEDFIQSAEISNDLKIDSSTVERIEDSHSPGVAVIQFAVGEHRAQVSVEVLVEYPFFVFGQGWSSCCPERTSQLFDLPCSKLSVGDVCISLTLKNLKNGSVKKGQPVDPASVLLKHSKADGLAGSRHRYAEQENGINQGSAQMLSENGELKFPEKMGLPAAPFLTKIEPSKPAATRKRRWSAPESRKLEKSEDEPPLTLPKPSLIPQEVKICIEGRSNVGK
UniProt Q9NQB0: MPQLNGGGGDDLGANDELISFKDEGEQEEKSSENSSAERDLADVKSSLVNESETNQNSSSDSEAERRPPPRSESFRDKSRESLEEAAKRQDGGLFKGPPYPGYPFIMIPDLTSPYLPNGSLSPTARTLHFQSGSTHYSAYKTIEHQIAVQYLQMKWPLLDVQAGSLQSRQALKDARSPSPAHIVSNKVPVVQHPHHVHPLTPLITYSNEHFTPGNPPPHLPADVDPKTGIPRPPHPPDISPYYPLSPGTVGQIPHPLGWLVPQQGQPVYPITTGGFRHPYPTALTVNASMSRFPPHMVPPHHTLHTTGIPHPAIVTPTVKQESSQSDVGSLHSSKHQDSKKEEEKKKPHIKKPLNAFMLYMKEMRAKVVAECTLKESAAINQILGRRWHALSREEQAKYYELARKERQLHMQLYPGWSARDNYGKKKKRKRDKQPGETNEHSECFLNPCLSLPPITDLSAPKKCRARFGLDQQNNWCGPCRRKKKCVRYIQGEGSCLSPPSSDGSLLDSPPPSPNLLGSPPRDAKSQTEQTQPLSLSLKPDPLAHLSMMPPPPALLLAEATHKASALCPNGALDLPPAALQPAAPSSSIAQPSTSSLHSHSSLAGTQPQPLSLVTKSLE
UniProt P35222: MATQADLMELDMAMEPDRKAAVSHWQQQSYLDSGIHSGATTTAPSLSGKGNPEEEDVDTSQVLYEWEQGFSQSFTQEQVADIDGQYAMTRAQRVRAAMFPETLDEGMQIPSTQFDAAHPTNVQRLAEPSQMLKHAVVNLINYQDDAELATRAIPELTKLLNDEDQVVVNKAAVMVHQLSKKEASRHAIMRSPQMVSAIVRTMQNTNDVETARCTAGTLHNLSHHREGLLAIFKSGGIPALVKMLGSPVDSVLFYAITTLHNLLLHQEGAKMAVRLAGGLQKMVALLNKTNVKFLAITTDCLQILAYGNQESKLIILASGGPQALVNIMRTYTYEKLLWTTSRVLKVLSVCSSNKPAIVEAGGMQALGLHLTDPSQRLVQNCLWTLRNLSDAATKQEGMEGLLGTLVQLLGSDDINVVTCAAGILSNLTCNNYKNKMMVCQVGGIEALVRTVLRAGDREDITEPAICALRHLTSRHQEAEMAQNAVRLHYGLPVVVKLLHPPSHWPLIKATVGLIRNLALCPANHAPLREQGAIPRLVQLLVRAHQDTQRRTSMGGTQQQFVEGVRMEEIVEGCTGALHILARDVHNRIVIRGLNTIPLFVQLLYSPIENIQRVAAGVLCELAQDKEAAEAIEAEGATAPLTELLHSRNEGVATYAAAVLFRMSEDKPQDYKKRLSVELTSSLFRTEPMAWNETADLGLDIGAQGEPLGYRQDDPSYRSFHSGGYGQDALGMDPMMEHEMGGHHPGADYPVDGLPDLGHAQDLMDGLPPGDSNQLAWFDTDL
UniProt Q9UJU2: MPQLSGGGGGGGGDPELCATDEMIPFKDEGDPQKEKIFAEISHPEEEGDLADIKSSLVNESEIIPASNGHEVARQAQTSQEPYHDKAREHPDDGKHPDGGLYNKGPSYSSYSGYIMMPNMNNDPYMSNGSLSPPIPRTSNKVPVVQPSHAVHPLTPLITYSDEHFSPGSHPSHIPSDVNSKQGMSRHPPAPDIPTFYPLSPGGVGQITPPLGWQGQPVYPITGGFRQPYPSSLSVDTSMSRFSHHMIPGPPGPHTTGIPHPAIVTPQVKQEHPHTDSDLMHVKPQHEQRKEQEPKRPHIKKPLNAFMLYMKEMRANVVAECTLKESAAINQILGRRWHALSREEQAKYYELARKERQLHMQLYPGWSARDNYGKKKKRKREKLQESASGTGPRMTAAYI
UniProt P36402: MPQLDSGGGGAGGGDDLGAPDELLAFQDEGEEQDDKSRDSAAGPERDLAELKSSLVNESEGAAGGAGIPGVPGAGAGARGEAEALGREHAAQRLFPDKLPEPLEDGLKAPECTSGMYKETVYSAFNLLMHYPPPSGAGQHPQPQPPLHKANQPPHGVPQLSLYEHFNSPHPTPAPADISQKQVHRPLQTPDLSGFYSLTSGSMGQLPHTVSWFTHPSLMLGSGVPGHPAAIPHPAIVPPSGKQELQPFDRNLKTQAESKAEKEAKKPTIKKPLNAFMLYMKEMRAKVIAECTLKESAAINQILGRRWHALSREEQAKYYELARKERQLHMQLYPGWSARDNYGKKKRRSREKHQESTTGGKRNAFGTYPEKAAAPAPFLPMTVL

Results are given in words; binding and its absence hold for the method and conditions named. Binding seen in cells or lysates may run through a third protein. Some results given as binding are weak or reduced against the parent protein; the word gives no strength.

The target in the assay is GST-ataxin-1 [30Q] (UniProt P54253). As to the kind of experiment: pull-down.

As for TCF4 (from UniProt Q9NQB0 1-619), the binding result is recorded as “binds”.

With β-catenin (from UniProt P35222 1-781), the binding entry is given as “no binding”. The value for LEF1 (from UniProt Q9UJU2 1-399) was “binds”; that for TCF1 (from UniProt P36402 1-384) was “binds”.

B1: TCF3 (protein, UniProt Q9HCS4 1-588)
chain: MPQLGGGGGGGGGGSGGGGGSSAGAAGGGDDLGANDELIPFQDEGGEEQEPSSDSASAQRDLDEVKSSLVNESENQSSSSDSEAERRPQPVRDTFQKPRDYFAEVRRPQDSAFFKGPPYPGYPFLMIPDLSSPYLSNGPLSPGGARTYLQMKWPLLDVPSSATVKDTRSPSPAHLSNKVPVVQHPHHMHPLTPLITYSNDHFSPGSPPTHLSPEIDPKTGIPRPPHPSELSPYYPLSPGAVGQIPHPLGWLVPQQGQPMYSLPPGGFRHPYPALAMNASMSSLVSSRFSPHMVAPAHPGLPTSGIPHPAIVSPIVKQEPAPPSLSPAVSVKSPVTVKKEEEKKPHVKKPLNAFMLYMKEMRAKVVAECTLKESAAINQILGRKWHNLSREEQAKYYELARKERQLHSQLYPTWSARDNYGKKKKRKREKQLSQTQSQQQVQEAEGALASKSKKPCVQYLPPEKPCDSPASSHGSMLDSPATPSAALASPAAPAATHSEQAQPLSLTTKPETRAQLALHSAAFLSAKAAASSSGQMGSQPPLLSRPLPLGSMPTALLASPPSFPATLHAHQALPVLQAQPLSLVTKSAH
Regarding B1, the binding entry is reported as “binds”.
